Not every detail of the peptide structures is certain; ends, links or a residue may be inferred. Where no end group is shown, it is not given here.
Biological target: T1, HPV-16 E7 protein binding to the RBG protein (Homo sapiens, UniProt P06400)
T1 sequence (P06400 1-928): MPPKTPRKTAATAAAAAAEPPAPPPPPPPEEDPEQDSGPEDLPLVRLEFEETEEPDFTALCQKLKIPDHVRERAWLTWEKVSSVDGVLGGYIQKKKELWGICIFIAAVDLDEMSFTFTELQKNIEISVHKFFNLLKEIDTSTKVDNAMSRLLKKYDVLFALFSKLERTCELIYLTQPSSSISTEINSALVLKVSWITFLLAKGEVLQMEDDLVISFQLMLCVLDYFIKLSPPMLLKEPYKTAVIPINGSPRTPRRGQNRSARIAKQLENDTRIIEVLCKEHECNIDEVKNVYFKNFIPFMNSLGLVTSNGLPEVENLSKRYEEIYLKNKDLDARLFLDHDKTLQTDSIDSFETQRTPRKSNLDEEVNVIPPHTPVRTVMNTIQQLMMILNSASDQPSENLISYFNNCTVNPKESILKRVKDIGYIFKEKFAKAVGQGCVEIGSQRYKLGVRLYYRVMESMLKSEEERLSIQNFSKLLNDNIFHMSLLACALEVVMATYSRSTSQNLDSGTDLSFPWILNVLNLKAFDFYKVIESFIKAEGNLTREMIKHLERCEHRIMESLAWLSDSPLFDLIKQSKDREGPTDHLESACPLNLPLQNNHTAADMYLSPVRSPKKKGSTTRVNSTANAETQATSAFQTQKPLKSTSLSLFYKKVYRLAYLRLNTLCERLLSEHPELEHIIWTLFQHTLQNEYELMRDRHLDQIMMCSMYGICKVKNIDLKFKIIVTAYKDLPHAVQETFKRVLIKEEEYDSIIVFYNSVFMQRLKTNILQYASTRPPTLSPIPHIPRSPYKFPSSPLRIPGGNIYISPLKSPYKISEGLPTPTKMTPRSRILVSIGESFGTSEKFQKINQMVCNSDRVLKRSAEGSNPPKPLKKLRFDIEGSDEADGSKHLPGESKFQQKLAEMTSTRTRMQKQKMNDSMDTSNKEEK
Test: Binding inhibition assay by immune precipitation (Example 2; Hela cell lysate plus radiolabeled E7 from rabbit reticulocyte lysate)
Parameters: Whole cell lysates of Hela cells were used as a source of human RBG protein; endogenous in cells; host or cells: HeLa whole cell lysate (RB); rabbit reticulocyte lysate, T7 promoter clone (E7)
Settings: summary statement of the description
Experimental: Peptide A, Peptide B, and Acetyl-GRP 20-27 were assayed for their abilities to inhibit the binding of the HPV-16 E7 protein to the RBG protein. Binding inhibition assays were carried out in vitro using a modification of the procedure described by N. Dyson et al., Science 243: 934-936 1989. Whole cell lysates of Hela cells were used as a source of human RBG protein. Rabbit reticulocyte cell free lysates that permit transcription and translation of exogenously added DNAs served as a source of HPV-16 E7 protein. The HPV-16 E7 gene was added to the rabbit reticulocyte lysate as a recombinant DNA clone under the control of a T7 promoter and incubated for 60 minutes at 30°C in the presence of radiolabeled methionine to allow transcription of the HPV-16 E7 gene and translation into E7 protein that contained radiolabeled methionine. The Hela cell and rabbit reticulocyte lysates were then mixed and incubated at 4°C for 90 minutes. After further manipulations a murine antibody against the RBG protein was added and incubated at 4°C for 60 minutes. Next, a rabbit anti-mouse IgG antibody and protein A sepharose was added to the reaction mixture in order to immune precipitate the RBG protein. At the same time, the E7 protein that was bound to the RBG protein was also precipitated. […] This biochemical protocol yields a quantitative estimate of the binding of HPV-16 E7 protein to the RBG protein in vitro. […]

Question: With “TDLYCYEQLNDSS-NH2 [Peptide A, Thr-Asp-Leu-Tyr-Cys-Tyr-Glu-Gln-Leu-Asn-Asp-Ser-Ser]” as the substance, how does the “inhibited the binding of the HPV E7 protein to the RBG protein (in words)” value read?
Answer: Its value is “inhibited”.
